Inconclusive means that the source gave no clear call. Such entries were picked first, then a sample of the others. Potencies of inconclusive entries are doubtful fits and often do not repeat. The source made the active and inactive calls. The call rests on the fitted dose curve; in most records, active means well fitted cell-killing curve with a large enough effect; inconclusive means small, poorly fitted or top-dose-only effect, or effect the other way; inactive means no such curve, though single readings can be large or run the other way.
Experiment: Quantitative High-Throughput drug screen in 47 multiple myeloma cell lines against the NCATS MIPE library collection: Delta47_JCRB cell viability assay (AID 1918925; further: nearly all actives have a fitted effect of over 45% in size)
Settings: Delta47 myeloma viability, CellTiter-Glo ATP, 48 h; series mostly up to 45.8 µM
From the text: PI: Beverly A. Mock Ph.D.
Laboratory of Cancer Biology and Genetics,
Center for Cancer Research, National Cancer Institute,
National Institute of Health, Bethesda, Maryland
Drug resistance and disease progression are common in multiple myeloma (MM) patients, underscoring the need for new therapeutic combinations. […] We hypothesized that effective combinations would reduce MYC expression and enhance p16 activity. […] These preclinical data identify potentially useful drug combinations for evaluation in drug-resistant MM and reveal potential mechanisms of combined drug sensitivity.
Described herein is the primary MIPE qHTS used to cherrypick compounds. Validated compounds were then further tested for potential synergistic activiy.
[1] Peat TJ, Gaikwad SM, Dubois W, Gyabaah-Kessie N, Zhang S, Gorjifard S, Phyo Z, Andres M, Hughitt VK, Simpson RM, Miller MA, Girvin AT, Taylor A, Williams D, D'Antonio N, Zhang Y, Rajagopalan A, Flietner E, Wilson K, Zhang X, Shinn P, Klumpp-Thomas C, McKnight C, Itkin Z, Chen L, Kazandijian D, Zhang J, Michalowski AM, Simmons JK, Keats J, Thomas CJ, Mock BA. Drug combinations identified by high-throughput screening promote cell cycle transition and upregulate Smad pathways in myeloma. Cancer Lett. 2023 Aug 1;568:216284. doi: 10.1016/j.canlet.2023.216284. Epub 2023 Jun 24. PMID: 37356470; PMCID: PMC10408729.
SEQUENCE No. (e.g., 1, 2, 3, etc.); […] (e.g., Cells, Incubation, Reagent, etc.); VALUE and DESCRIPTION.
1; Cells; 5 uL; white, solid bottom 1536-well Greiner assay plate.
2; Compounds; 23 nL; Kalypsis pin tool (Wako USA) equipped with a 1536-well pin head to transfer to the assay plates.
3; Incubation; 48 hours; 37C incubation.
4; Reagent;5uL; CellTiter Glo (Promega).
5; Detector; 425V; Luminescence; Viewlux PerkinElmer.
NOTES (numbers refer to Sequence numbers above)
1. The cell-based screening methods employed in this study were like those previously published. Briefly, the corresponding myeloma cell lines were screened in 1,536-well plates with 500 cells, 5-uL per well for inhibition of cell viability (assessed by measuring ATP levels with CellTiterGlo).
2. NCATS MIPE 4.0 library of approved and investigational drugs were added using the Kalypsis pin tool. Wells treated with DMSO only for 100% viability and media only wells for 0% viability were used as controls.
3. The assay plates were covered and incubated for 48 hours in a 37C, 5% CO2 incubator with controlled humidity.
4. After 48 hours, CellTilter-GloTM luminescent substrate mix (Promega) reagent was added to the assay plate and plates we incubated for 5 min at room temperature.
5. Signal was measured as median relative luminescence units on a ViewLux (PerkinElmer) multiplate reader.
[1] Heske CM, Davis MI, Baumgart JT, Wilson K, Gormally MV, Chen L, Zhang X, Ceribelli M, Duveau DY, Guha R, Ferrer M, Arnaldez FI, Ji J, Tran HL, Zhang Y, Mendoza A, Helman LJ, Thomas CJ. Matrix Screen Identifies Synergistic Combination of PARP Inhibitors and Nicotinamide Phosphoribosyltransferase (NAMPT) Inhibitors in Ewing Sarcoma. Clin Cancer Res. 2017 Dec 1;23(23):7301-7311. doi: 10.1158/1078-0432.CCR-17-1121. Epub 2017 Sep 12. PMID: 28899971; PMCID: PMC6636827.
In the case of `CC1(C)O[C@@H]2C[C@H]3[C@@H]4CCC5=CC(=O)C=C[C@]5(C)[C@@H]4[C@@H](O)C[C@]3(C)[C@]2(C(=O)CO)O1`, the Potency is reported as inconclusive: 0.0083 µM [rising, full curve, poor fit].
In the case of `Cc1ccc(-n2[nH]c(C)c(N=Nc3cccc(-c4cccc(C(=O)O)c4)c3O)c2=O)cc1C`, the Potency is reported as inconclusive: 37.2 µM [cytotoxic, single point].
For `CCCc1cc(=O)[nH]c(=S)[nH]1`, the Potency was inconclusive: 14.8 µM [cytotoxic, partial curve, poor fit].
For `C[C@@H](NCCCc1cccc(C(F)(F)F)c1)c1cccc2ccccc12`, the Potency was “inactive”.
For `COc1ccccc1N1CCN(CC(O)COc2cccc3ccccc23)CC1` (stereo not given), the Potency was “inactive”.
For `CC(=O)SCC(Cc1ccccc1)C(=O)NCC(=O)OCc1ccccc1` (stereo not given), the Potency was active: 1.05 µM.
For `Cc1onc(-c2ccccc2)c1C(=O)N[C@@H]1C(=O)N2[C@@H](C(=O)O)C(C)(C)S[C@@H]12`, the Potency was inconclusive: 9.35 µM [cytotoxic, partial curve, poor fit].
For `COc1ccc(-c2nc3ccc(C4=NNC(=O)CC4C)cc3[nH]2)cc1` (stereo not given), the Potency was inconclusive: 33.2 µM [cytotoxic, single point].
With `C[C@@H](CN1CC(=O)NC(=O)C1)N1CC(=O)NC(=O)C1` the Potency was inconclusive: 2.64 µM [cytotoxic, full curve, poor fit].
For `NC(=O)c1ccc(N(C(N)=O)c2c(F)cccc2F)nc1-c1ccc(F)cc1F`, the Potency was active: 5.9 µM.
For `CC(C)n1cnc2c(NCCCCCCNC(=O)OC(C)(C)C)nc(NCCO)nc21`, the Potency was active: 14.8 µM.
In the case of `COc1cc(N2CCC(N3CCN(C)CC3)CC2)ccc1Nc1ncnc(Nc2ccccc2S(=O)(=O)C(C)C)n1`, the Potency is reported as inconclusive: 5.26 µM [cytotoxic, full curve, poor fit].
In the case of `CCCCC[C@H](O)C=C[C@H]1[C@H](O)CC(=O)[C@H]1CC=CCCCC(=O)O`, the Potency is reported as “inactive”.
With `Cc1ccc(C2=Nc3ccc(Cl)cc3OC2)cc1` the Potency was inconclusive: 33.2 µM [cytotoxic, partial curve, poor fit].
In the case of `COc1ccc(-c2c(-c3ccc(O)cc3O)n[nH]c2C)cc1`, the Potency is reported as inconclusive: 38.2 µM [cytotoxic, partial curve].
In the case of `OCCN(CCO)c1nc(N2CCCCC2)c2nc(N(CCO)CCO)nc(N3CCCCC3)c2n1`, the Potency is reported as active: 23.5 µM.
For `CCn1c(C(=O)N(C2CC2)C2CC2)cc2c3c(ncn3C)c(Nc3cc(C)n(C)n3)nc21`, the Potency was inconclusive: 18.7 µM [cytotoxic, partial curve, poor fit].
With `O=P(O)(O)C(O)(Cn1ccnc1)P(=O)(O)O` the Potency was “inactive”.
For `NCCCCCC(=O)O`, the Potency was inconclusive: 14.8 µM [cytotoxic, partial curve, poor fit].
For `CN(N=O)C(=O)N[C@H]1C(O)OC(CO)[C@@H](O)[C@H]1O` (stereo not given in full), the Potency was “inactive”.
For `C#C[C@]1(O)CC[C@H]2[C@H]3CCc4cc(OC)ccc4[C@H]3CC[C@@]21C`, the Potency was inconclusive: 20.9 µM [cytotoxic, partial curve, poor fit].
For `CNc1nc(Nc2ccc(C(=O)N3CCOCC3)cc2OC)ncc1Cl`, the Potency was “inactive”.
With `COc1cccc([C@@H](C)NCCCc2ccccc2Cl)c1` the Potency was inconclusive: 18.7 µM [cytotoxic, partial curve, poor fit].
In the case of `CC1COC2(CCN(c3nc(=O)c4cc(C(F)(F)F)cc([N+](=O)[O-])c4s3)CC2)O1` (stereo not given), the Potency is reported as “inactive”.
For `Nc1nc2[nH]cc(CCc3ccc(C(=O)N[C@@H](CCC(=O)O)C(=O)O)cc3)c2c(=O)[nH]1`, the Potency was “inactive”.
With `CN(CCOc1ccc(CC2SC(=O)NC2=O)cc1)c1ccccn1` (stereo not given) the Potency was “inactive”.
With `O=C(NC(Cc1cc(=O)[nH]c2ccccc12)C(=O)O)c1ccc(Cl)cc1` (stereo not given) the Potency was inconclusive: 13.2 µM [cytotoxic, partial curve, poor fit].
With `CC1(C)O[C@H]2C[C@@H]3[C@H]4CCC5=CC(=O)C=C[C@]5(C)[C@@]4(F)[C@@H](O)C[C@]3(C)[C@]2(C(=O)CO)O1` the Potency was inconclusive: 23.5 µM [cytotoxic, single point].
In the case of `CO[C@H]1C[C@@H]2CC[C@@H](C)[C@@](O)(O2)C(=O)C(=O)N2CCCC[C@@H]2C(=O)O[C@H]([C@H](C)C[C@@H]2CC[C@H](OP(C)(C)=O)[C@H](OC)C2)CC(=O)[C@H](C)C=C(C)[C@@H](O)[C@@H](OC)C(=O)[C@H](C)C[C@H](C)C=CC=CC=C1C`, the Potency is reported as inconclusive: 20.9 µM [cytotoxic, partial curve].
With `CNC(=O)c1cc(COc2nnc(Nc3ccc(Cl)cc3)c3ccoc23)ccn1` the Potency was “inactive”.
For `O=C1N(c2ccccc2)c2ccccc2C1(Cc1ccncc1)Cc1ccncc1`, the Potency was “inactive”.
For `COc1ccc2c(Oc3ccc(NC(=O)c4c(C)n(CC(C)(C)O)n(-c5ccccc5)c4=O)cc3F)ccnc2c1`, the Potency was active: 23.5 µM.
For `COC(=O)C1=C(C)NC(C)=C(C(=O)OCCCN2CCC(c3ccccc3)(c3ccccc3)CC2)C1c1cccc([N+](=O)[O-])c1` (stereo not given), the Potency was inconclusive: 14.8 µM [cytotoxic, partial curve, poor fit].
For `NC1=N[C@@]2(c3cc(NC(=O)c4ccc(F)cn4)ccc3F)COC[C@@H]2CS1`, the Potency was inconclusive: 33.2 µM [cytotoxic, single point].
In the case of `CO[C@H]1C=CO[C@@]2(C)Oc3c(C)c(O)c4c(O)c(c(C=NN5CCN(C)CC5)c(O)c4c3C2=O)NC(=O)C(C)=CC=C[C@H](C)[C@H](O)[C@@H](C)[C@@H](O)[C@@H](C)[C@H](OC(C)=O)[C@H]1C`, the Potency is reported as inconclusive: 5.98 µM [cytotoxic, partial curve, poor fit].
In the case of `CCC[C@@H](NC(=O)[C@@H]1[C@H]2CCC[C@@H]2CN1C(=O)[C@@H](NC(=O)[C@@H](NC(=O)c1cnccn1)C1CCCCC1)C(C)(C)C)C(=O)C(=O)NC1CC1`, the Potency is reported as active: 14.8 µM.
In the case of `O=C1c2ccccc2-c2n[nH]c3cccc1c23`, the Potency is reported as inconclusive: 16.6 µM [cytotoxic, partial curve].
With `C=CC[N+]1([C@H]2C[C@H]3[C@@H]4CC[C@H]5C[C@H](O)[C@@H](N6CCOCC6)C[C@]5(C)[C@@H]4CC[C@]3(C)[C@H]2OC(C)=O)CCCC1` the Potency was “inactive”.
With `CCOC(=O)C=C[C@H](C[C@@H]1CCNC1=O)NC(=O)[C@@H](CC(=O)[C@@H](NC(=O)c1cc(C)on1)C(C)C)Cc1ccc(F)cc1` the Potency was “inactive”.
Potency means the concentration at half of the fitted maximal effect.
